In the supplement of paper PMC12889115:
Some of the results follow. These are raw signals, not scaled to a control.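 In the initial screen, polymyxin B was used at a concentration that permeabilizes Salmonella's outer membrane but not its inner membrane. Maximum growth was set by DMSO wells with or without polymyxin B. Since plates varied, data were ranked per plate, and compounds giving the lowest OD600 advanced as hits.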

Test system: Salmonella enterica serovar Typhimurium SL1344
Test: bacterial growth OD600 after 18 h with compound and polymyxin B; higher = more bacterial growth (less inhibition)
Conditions: 50 µM, Mueller-Hinton broth

Compound	bacterial growth OD600 (polymyxin B 1 µg/mL)	bacterial growth OD600 (polymyxin B 0.75 µg/mL)
COc1ccc(NC(=O)CCC2CCCN(C(=O)C3=C(C)OCCO3)C2)cc1Cl (stereo not given)	0.881	
CCOC(=O)C1(Cc2ccc(F)cc2)CCCN(C(=O)c2cc(OC)ccc2OC)C1 (stereo not given)	0.384	
Cn1cc(CCNC(=O)c2ccccc2OC2CCN(C(=O)c3cccnc3)CC2)cn1		0.808
CC(C)(C)CN1CCC(C2CCN(CCCn3cccn3)CC2)C1 (stereo not given)		0.896
O=C(Cc1cccc(F)c1)NC1CC(=O)N(Cc2ccc(F)cc2)C1 (stereo not given)	0.88	
COCCN1CCN(C(=O)c2cnn(-c3nccc(-c4ccccc4OC)n3)c2C2CC2)CC1		0.854
CC(C)NC(=O)C1CCCN(C2CCN(Cc3ccccc3)CC2)C1 (stereo not given)		0.868
O=C1CCCN1CCCC(=O)N1CCCC(N2CCN(c3cccc(Cl)c3)CC2)C1 (stereo not given)	0.945	
C=CCNC(=O)c1coc(COc2ccc(F)cc2)n1	0.987	
O=C(CCc1ccncc1)N1CCCC(CCc2ccccc2F)C1 (stereo not given)		0.004
CCOC(=O)C1(Cc2ccc(F)cc2)CCCN(C(=O)c2sccc2C)C1 (stereo not given)	0.333	
COc1ccc(C(=O)N2CCC(C3CCN(c4ncccn4)CC3)C2)o1 (stereo not given)		0.958
Cc1cc(C)n(CCNC2CCN(c3ccc(C(=O)N4CCOCC4)cc3)CC2)n1		0.909
O=C(NCc1cccnc1)C1CCN(C2CCN(CC3CCCC3)CC2)CC1	0.859	
CC(C)c1ccc(CN2CCCC3(CCN(S(C)(=O)=O)C3)C2=O)cc1 (stereo not given)	0.876	
COc1ccc(CN2CCN(Cc3cnn(C(C)C)c3)CC2CCO)c(F)c1 (stereo not given)	0.873	
CCOc1ccccc1N1CCN(C(=O)CCC2(Cc3ccc(OC)cc3F)CCC(=O)N2)CC1 (stereo not given)		0.822
COc1ccc(/C=C/CN2CCCC(CCC(=O)N(C)C3CCN(C)CC3)C2)cc1 (stereo not given)	1.05	
COc1ccc(CC(=O)NCCN2Cc3ccccc3OC(c3ccccc3OC)C2)cc1OC (stereo not given)		0.791
O=C(CC(c1ccc(O)cc1)c1cccc(O)c1)NC1CCC1 (stereo not given)	1.08	
CCOCCCNC(=O)c1cc(OC)ccc1OC1CCN(C2CCCC2)CC1	1.25	
O=C(/C=C/c1ccccc1)N1CC[C@@H](N2CCN(CCc3ccccc3)CC2)[C@H](O)C1		0.758
CO[C@H]1[C@H](NC(=O)c2cccc(F)c2)c2ccccc2C12CCN(Cc1ccsc1)CC2		0.828
Cc1oc(-c2cccc(NC(=O)CCc3cccnc3)c2)nc1CNC(=O)C1CC=CCC1 (stereo not given)		0.734
OCCOc1cccc(CN2Cc3ccccc3OC(c3ccccc3F)C2)c1 (stereo not given)		-0.003
CCN1CCN(C2(C(=O)N[C@@H](CC(C)C)C(=O)OC)Cc3ccccc3C2)CC1		0.851
COCC1CCCCN1C(=O)c1csc2nc(-c3cccc(Cl)c3)cn12 (stereo not given)		0.003
CC(C)c1nc(CNC(=O)c2ccc(N(C)Cc3ccc(F)cc3)nc2)no1	0.852	
CCN1CCN(C2(C(=O)N3CCC(COC)CC3)Cc3ccccc3C2)CC1		0.905
O=C(Nc1ccc(-n2cccn2)cc1)C1CCCN1Cc1ccc2c(c1)CCO2 (stereo not given)		0.948

Quoted at random: 2 records from the list, in no set order.
Compound	bacterial growth OD600 (polymyxin B 1 µg/mL)	bacterial growth OD600 (polymyxin B 0.75 µg/mL)
CC(C)c1nc(CNC(=O)c2ccc(N(C)Cc3ccc(F)cc3)nc2)no1	0.852	
CCOC(=O)C1(Cc2ccc(F)cc2)CCCN(C(=O)c2cc(OC)ccc2OC)C1 (stereo not given)	0.384	
